Consider two substances from patent publication US20110086089A1, “USE OF P27KIP1 FOR THE PREVENTION AND TREATMENT OF HEART FAILURE” (UNIVERSITY HEALTH NETWORK, priority 2008, published 2011).

These are yes or no findings as the source states them, for the method shown. For some of these results: In cells and extracts the contact can be indirect. Some binding calls cover weakened binding; strength is not graded here.

Assay [1] has as its target recombinant active His-tagged CK2-alpha-prime/beta (UniProt P19784). Nature of the assay: immunoprecipitation with anti-p27 from kinase reaction mixtures, anti-CK2-alpha-prime immunoblot.
For assay [2] the target is unchanged. The experiment in a line: immunoprecipitation with anti-CK2-alpha-prime from kinase reaction mixtures, anti-p27 immunoblot.
The target of assay [3] is glutathione-S-transferase (GST) conjugated wt.p27 (human) (UniProt P46527). The experiment in a line: GST pull-down on glutathione-sepharose beads, anti-His immunoblot.
The target is the same in assay [4]. The experiment in a line: GST pull-down on glutathione-sepharose beads, anti-His immunoblot (FIG. 1B).

For “recombinant His-tagged wt.p27 (from UniProt P46527 1-198)”, the binding result in assay [1] and in assay [2] was “binds” in each case.
For the substance “Wt.CK2-alpha-prime containing a N-terminal hexahistidine (His) sequence (from UniProt P19784 1-350) (enzyme)”, the binding entry in assay [3] and in assay [4] was “binds” throughout.
